In patent US20060251652A1 (APPLIED MOLECULAR EVOLUTION, published 2006):
These are yes or no findings as the source states them, for the method shown. Some binding calls cover weakened binding; strength is not graded here.

Molecular target: T1, human CD20 (human, UniProt P11836 1-297)
T1 construct: whole, on cells; Always presented on cells (fixed Ramos cells in ELISA; live cells in flow cytometry and KinExA-type assays); also called hCD20; Bp35
T1 sequence (looked up): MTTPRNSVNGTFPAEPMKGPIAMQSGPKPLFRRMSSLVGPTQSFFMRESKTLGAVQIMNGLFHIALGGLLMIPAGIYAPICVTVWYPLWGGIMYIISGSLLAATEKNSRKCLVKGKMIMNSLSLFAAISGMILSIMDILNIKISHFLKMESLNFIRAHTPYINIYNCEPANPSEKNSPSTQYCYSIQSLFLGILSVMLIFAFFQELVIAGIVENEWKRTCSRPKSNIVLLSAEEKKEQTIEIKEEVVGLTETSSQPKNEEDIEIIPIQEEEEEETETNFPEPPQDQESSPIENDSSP
Test: ELISA on formalin-fixed Ramos cells, on-rate format: 5 min with Fab and 5 min with anti-His6 peroxidase, OD 450

- binding: binds
B1: 2C2 (Fab, V domains shown)
VH: EVQLVQSGAEVKKPGESLKISCKGSGYTFTSYNMHWVRQMPGKGLEWMGAIYPLNGDTSYNQKFKLQVTISADKSISTAYLQWSSLKASDTAMYYCARSTYVGGDWTFDVWGKGTTVTVSS
VL: EIVLTQSPGTLSLSPGERATLSCRASSSVSYIHWYQQKPGQAPRLLIYATSNLASGIPDRFSGSGSGTDFTLTISRLEPEDFAVYYCQQWLSNPPTFGQGTKLEIK
